The supplement of paper PMC9744312
Counter-ions that a name gives are not always drawn. Some of the results follow. The data scatter; read single values as rough.

tested on: Peyronie's disease tunica albuginea primary fibroblasts; assay: cell viability (DRAQ5 nuclear stain) relative to TGF-beta1-only control; higher = more viable cells; settings: 10 µM; TGF-beta1 10 ng/mL; 72 h

| SMILES | cell viability [%] |
| --- | --- |
| O=C(O)CCNC(=O)c1ccc(/N=N/c2ccc(O)c(C(=O)O)c2)cc1 [Balsalazide disodium] | 92.5 |
| C[C@H]1[C@H](OC(=O)CCC(=O)O)O[C@@H]2O[C@@]3(C)CC[C@H]4[C@H](C)CC[C@@H]1[C@@]24OO3 [Artesunate] | 100 |
| Cc1ccsc1C(=CCCN1CCC[C@@H](C(=O)O)C1)c1sccc1C [Tiagabine] | 93.9 |
| Cc1ccsc1C(=CCCN1CCC[C@@H](C(=O)O)C1)c1sccc1C [Tiagabine hydrochloride] | 88.4 |
| C[n+]1ccccc1C=NO [Pralidoxime Iodide] | 93 |
| O=C1OC(CN2CCOCC2)CN1/N=C/c1ccc([N+](=O)[O-])o1 (centres undefined) [Furaltadone HCl] | 89.3 |
| O=C1CCC(N2C(=O)c3ccccc3C2=O)C(=O)N1 (centres undefined) [Thalidomide] | 71.8 |
| c1cn2cc(-c3ccc4cn[nH]c4c3)nc(Nc3ccc(N4CCOCC4)cc3)c2n1 [Entospletinib (GS-9973)] | 106 |
| CC(=O)OCC1=C(C(=O)O)N2C(=O)[C@@H](NC(=O)Cc3cccs3)[C@H]2SC1 [Cephalothin] | 93.7 |
| Clc1ccc(C(Cn2ccnc2)OCc2csc3c(Cl)cccc23)c(Cl)c1 (centres undefined) [Sertaconazole nitrate] | 89.9 |
| CCOc1ccc(NC(=O)CC(C)O)cc1 (centres undefined) [Bucetin] | 84.9 |
| Cc1nc2n(c(=O)c1CCN1CCC(c3noc4cc(F)ccc34)CC1)CCCC2O (centres undefined) [Paliperidone] | 94.5 |
| CCCCc1nc(Cl)c(CO)n1Cc1ccc(-c2ccccc2-c2nnn[nH]2)cc1 [Losartan Potassium (DuP 753)] | 85.4 |
| CCCCc1nc(Cl)c(CO)n1Cc1ccc(-c2ccccc2-c2nnn[nH]2)cc1 [Losartan] | 87.8 |
| CC1(C)S[C@@H]2[C@H](NC(=O)Cc3ccccc3)C(=O)N2[C@H]1C(=O)O [Benzylpenicillin potassium] | 98.8 |
| CC1(C)S[C@@H]2[C@H](NC(=O)Cc3ccccc3)C(=O)N2[C@H]1C(=O)O [Penicillin G Sodium] | 94.9 |
| COc1cc(/C=C/C(=O)CC(=O)/C=C/c2ccc(O)c(OC)c2)ccc1O [Curcumin] | 96.6 |
| O=C(O)CSCC(=O)NC1CCSC1=O (centres undefined) [Erdosteine] | 91.5 |
| CC1(C)S[C@@H]2[C@H](NC(=O)[C@H](N)c3ccccc3)C(=O)N2[C@H]1C(=O)OCOC(=O)[C@@H]1N2C(=O)C[C@H]2S(=O)(=O)C1(C)C [Sultamicillin] | 113 |
| O=C1c2cccc3c2[C@H](CCC3)CN1[C@@H]1CN2CCC1CC2 [Palonosetron HCl] | 90.4 |
| CC(=O)Oc1ccccc1C(=O)O.CC(=O)Oc1ccccc1C(=O)O.NC(N)=O [Carbasalate Calcium] | 86.5 |
| NCC[C@H](O)C(=O)N[C@@H]1C[C@H](N)[C@@H](O[C@H]2O[C@H](CN)[C@@H](O)[C@H](O)[C@H]2O)[C@H](O)[C@H]1O[C@H]1O[C@H](CO)[C@@H](O)[C@H](N)[C@H]1O [Amikacin disulfate] | 79.8 |

| SMILES | cell viability [%] |
| --- | --- |
| NCC[C@H](O)C(=O)N[C@@H]1C[C@H](N)[C@@H](O[C@H]2O[C@H](CN)[C@@H](O)[C@H](O)[C@H]2O)[C@H](O)[C@H]1O[C@H]1O[C@H](CO)[C@@H](O)[C@H](N)[C@H]1O [Amikacin hydrate] | 88.4 |
| Nc1nc(O)c2ncn(CCC(CO)CO)c2n1 [Penciclovir] | 100 |
| Fc1ccc([C@@H]2CCNC[C@H]2COc2ccc3c(c2)OCO3)cc1 [Paroxetine mesylate] | 82.3 |
| Fc1ccc([C@@H]2CCNC[C@H]2COc2ccc3c(c2)OCO3)cc1 [Paroxetine HCl] | 80.6 |
| CN(C/C=C/C#CC(C)(C)C)Cc1cccc2ccccc12 [Terbinafine HCl] | 86.6 |
| CN(C/C=C/C#CC(C)(C)C)Cc1cccc2ccccc12 [Terbinafine] | 100 |
| O=c1[nH]cnc2c1ncn2[C@H]1CC[C@@H](CO)O1 [Didanosine] | 83.1 |
| CCCC(=O)OCOC(=O)C1=C(C)NC(C)=C(C(=O)OC)C1c1cccc(Cl)c1Cl (centres undefined) [Clevidipine Butyrate] | 96.4 |
| NC(CO)C(=O)NNCc1ccc(O)c(O)c1O (centres undefined) [Benserazide HCl] | 94.1 |
| C[C@H]1COc2c(N3CCN(C)CC3)c(F)cc3c(=O)c(C(=O)O)cn1c23 [Levofloxacin hydrate] | 97.5 |
| C[C@H]1COc2c(N3CCN(C)CC3)c(F)cc3c(=O)c(C(=O)O)cn1c23 [Levofloxacin] | 99.2 |
| C[N+](C)(C)CCO.[Cl-] [Choline Chloride] | 93.6 |
| C/C=C1\[C@H]2C=C(C)C[C@]1(N)c1ccc(=O)[nH]c1C2 [(-)-Huperzine A (HupA)] | 92.5 |
| O=c1[nH]cnc2[nH]ncc12 [Allopurinol Sodium] | 92.1 |
| CCOC(=O)[C@H](CCc1ccccc1)N[C@@H](C)C(=O)N1Cc2cc(OC)c(OC)cc2C[C@H]1C(=O)O [Moexipril HCl] | 91.3 |
| CN1CCC(OC(c2ccccc2)c2ccccc2)CC1 [Diphenylpyraline HCl] | 91.1 |
| COC(=O)c1ccc2c(C(=Nc3ccc(N(C)C(=O)CN4CCN(C)CC4)cc3)c3ccccc3)c(O)[nH]c2c1 [Nintedanib Ethanesulfonate Salt] | 66.5 |
| Clc1ccc(Nc2nnc(Cc3ccncc3)c3ccccc23)cc1 [Vatalanib (PTK787) 2HCl] | 73.1 |
| CC(=O)SCC(Cc1ccccc1)C(=O)NCC(=O)OCc1ccccc1 (centres undefined) [Racecadotril] | 88.6 |
| C[C@H](CCC(=O)O)[C@H]1CC[C@H]2[C@@H]3CC[C@@H]4C[C@H](O)CC[C@]4(C)[C@H]3CC[C@]12C [Lithocholic acid] | 92.5 |
| N[C@@H](CSCCCO)C(=O)O [Fudosteine] | 99.4 |
| CCNC(=O)[C@@H]1CCCN1C(=O)[C@H](CCCN=C(N)N)NC(=O)[C@H](CC(C)C)NC(=O)[C@@H](C)NC(=O)[C@H](Cc1ccc(O)cc1)NC(=O)[C@H](CO)NC(=O)[C@H](Cc1c[nH]c2ccccc12)NC(=O)[C@H](Cc1cnc[nH]1)NC(=O)[C@@H]1CCC(=O)N1 [Alarelin Acetate] | 97.6 |

Some values from above.
cell viability [%], CC(=O)SCC(Cc1ccccc1)C(=O)NCC(=O)OCc1ccccc1 (centres undefined) [Racecadotril] reads 88.6
cell viability [%], O=c1[nH]cnc2c1ncn2[C@H]1CC[C@@H](CO)O1 [Didanosine] reads 83.1
cell viability [%], Nc1nc(O)c2ncn(CCC(CO)CO)c2n1 [Penciclovir] reads 100
